34 molecules from PubChem BioAssay AID2685 (National Center for Advancing Translational Sciences (NCATS), 2010) can be followed below.

The assay is described as follows: qHTS Assay for Lipid Storage Modulators in Drosophila S3 Cells.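 As to cell number change: cells counted by Cell Tracker Red CMTPX staining in the red channel.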 The conditions noted are these: BODIPY lipid droplet fluorescence, 18-24 h; for cell number change: measured here: cell count max response, cells fed with added oleic acid. The method, boiled down: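 Drosophila S3 cells loaded with oleic acid (400 uM, as added) and compounds at several concentrations; lipid droplets imaged by 488-nm laser-scanning cytometry, 500–530 nm intensity and object ratio to cell channel. Percent activity normalized to 20 uM Triacsin C.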
For orientation: In qHTS, concentration-response curves come from the screen itself.

The mark [1] stands for this setting: measured here: lipid fluorescence (Fed channel) AC50, cells fed with added oleic acid.
[2] abbreviates: measured here: cell number channel AC50, cells fed with added oleic acid.

Structures are written as SMILES. This is one part of the list. Further columns of the screen follow, without active or inactive calls. The list favours compounds with an active or inconclusive main result. Words in brackets tell the shape of the fitted curve; partial curves, single points and poor fits give uncertain potencies.

A word on the AC50: it is the concentration at which the activity in the assay is half-maximal. Higher therefore signals weaker potency. In the case of `COC(=O)C1=C(c2ccc(F)cc2F)C[C@@H]2CC[C@H]1N2C(=O)NCc1ccc(F)cc1`, the cell number change amounted to 13.9%. The AC50 under setting [1] was 0.366 µM [falling, full curve, poor fit].

Regarding `COc1ccc(CCn2c(O)c(/C=N/NC(=O)c3ccncc3)c(=O)[nH]c2=O)cc1OC`, the cell number change turned out to be 8.11%. For the same molecule, the AC50 under setting [1] was 3.26 µM [rising, single point].

Turning to `C[C@]12CCC(=O)C=C1CC[C@@H]1[C@@H]2CC[C@]2(C)C(=O)CC[C@@H]12`, the cell number change was -2.31%. Under setting [1], the AC50 is 1.84 µM [rising, full curve, poor fit].

For `CC(=O)O[C@H]1C[C@@H]2CC[C@@H]3[C@H](CC[C@]4(C)C(=O)CC[C@@H]34)[C@@]2(C)C[C@@H]1OC(C)=O`, the cell number change is 27.7%. Besides, the AC50 under setting [1] is 20.6 µM [rising, single point].

For `COC(=O)C1=C(c2ccccc2OCc2ccccc2)C[C@@H]2CC[C@H]1N2C(=O)NCc1ccc(OC)c(OC)c1`, the cell number change is -3.97%. Moreover, the AC50 under setting [1] is 29.1 µM [falling, single point].

With `OC(c1ccccc1)(c1ccccc1)C1CCNCC1`, the AC50 under setting [1] is 0.651 µM [falling, single point].

Take `CN1CCN(C(=O)COc2ccc3ccccc3c2)CC1`: the cell number change was -12.5%.

Consider `COc1ccc(N2C(=O)/C(=C/c3cc(C)n(-c4ccc(C)cn4)c3C)C(=O)NC2=S)c(OC)c1`, for which the cell number change was -26.7%. For the same molecule, the AC50 under setting [1] was 0.411 µM [falling, single point].

Consider `Cc1ccc2c(c1)C1CN(C)CCC1N2C(=O)/C=C/c1ccc2c(c1)OCO2` (stereo not drawn), for which the cell number change worked out at 22.8%. Under setting [2], the half-maximal activity concentration (AC50) is 6.51 µM [rising, partial curve, poor fit].

For `O=C1CC2OCC=C3CN4CCC56c7cc([N+](=O)[O-])ccc7N1C5C2C3CC46` (stereo not drawn), the cell number change is -23.3%. Moreover, the AC50 under setting [2] was 0.259 µM [falling, full curve, poor fit].

With `Cc1ccccc1N1C(=O)/C(=C/c2ccco2)C(=O)NC1=S`, the cell number change is -13.9%. In addition, the AC50 under setting [1] was 29.1 µM [rising, partial curve].

`CC(=O)c1ccc2c(c1)C1C(Cl)C(Sc3ccccc3[N+](=O)[O-])CC1C(c1ccccc1[N+](=O)[O-])N2` (stereo not drawn): the cell number change was -24.7%. In addition, the AC50 under setting [1] was 29.1 µM [falling, single point].

As for `Cc1cc(C)c(C(=O)N2CCC3(CC2)OCCO3)c(C)c1`, the cell number change turned out to be 7.42%. Under setting [1], the half-maximal activity concentration (AC50) is 20.6 µM [rising, single point].

With `COc1cccc(-n2c(/C=C/c3ccc(O)c(O)c3)nc3ccccc3c2=O)c1`, the cell number change was -30.3%. Further, the AC50 under setting [2] was 0.00517 µM [falling, full curve, poor fit]. For the same molecule, the AC50 under setting [1] is 0.00461 µM [falling, full curve, poor fit].

Regarding `CC(C)NS(=O)(=O)c1ccc(OCC(=O)N2CCN(Cc3ccc4c(c3)OCO4)CC2)c(Cl)c1`, the cell number change is -35.3%. For the same molecule, the AC50 under setting [2] was 29.1 µM [falling, partial curve, poor fit]. Moreover, the AC50 under setting [1] is 29.1 µM [falling, single point].

`COC(=O)C1=C(c2cccc(C#N)c2)C[C@@H]2CC[C@H]1N2C(=O)NC1CCCCC1`: the cell number change stood at 7.55%. Further, under setting [1], the AC50 was 0.00461 µM [rising, full curve, poor fit].

With `CCN(CC)CCCN=Cc1c(O)n(-c2ccccc2F)c(=O)[nH]c1=O`, the cell number change was 1.48%.

For the molecule `Cn1c(=O)c2[nH]cnc2n(C)c1=O`, under setting [2], the AC50 was 18.4 µM [rising, partial curve, poor fit].

On to `O=C1CC(=O)N(c2cccc(F)c2)C(=O)N1`, for which the cell number change is -6.32%. The AC50 under setting [1] was 5.17 µM [falling, single point].

In the case of `C=CC1CN2CCC1CC2c1[nH]c2ccccc2c1CCO` (stereo not drawn), under setting [2], the AC50 was 0.58 µM [falling, single point].

On to `CC#CP(=O)(OCC)C(O)(c1ccccc1)C(F)(F)F` (stereo not drawn), for which the AC50 under setting [1] is 2.91 µM [falling, partial curve].

Consider `CC(N)Cc1ccccc1Sc1ccc(O)cc1` (stereo not drawn), for which the cell number change was -8.74%. For the same molecule, under setting [1], the AC50 is 0.0731 µM [falling, full curve, poor fit].

Take `COc1ccc(N2C(=O)CC(N3CCC(n4c(=O)[nH]c5ccccc54)CC3)C2=O)cc1` (stereo not drawn): under setting [2], the AC50 was 0.651 µM [falling, single point].

With `O=c1oc2ccccc2c(O)c1C(c1ccccn1)c1c(O)c2ccccc2oc1=O`, the cell number change was 19.2%.

On to `O=C(O)CN1C(=O)CN=C(c2ccccn2)c2cc(Cl)ccc21`, for which the cell number change was 12.9%. The AC50 under setting [1] is 1.46 µM [falling, full curve].

As to `C=CCNC(=O)c1c(N)n(CCN2CCOCC2)c2nc3ccccc3nc12`, the cell number change was -29.4%. In addition, the AC50 under setting [1] is 6.51 µM [falling, full curve, poor fit].

On to `O=C(N/N=C/c1c(O)n(C2CC2)c(=S)[nH]c1=O)c1ccccc1`, for which the cell number change stood at 44.6%. Further, the AC50 under setting [2] is 0.259 µM [rising, full curve]. In addition, the AC50 under setting [1] was 0.731 µM [rising, full curve, poor fit].

`O=C1NC(=O)N(CCC2=CCCCC2)C(=O)/C1=C\c1cccs1`: the cell number change was -35.7%. Moreover, under setting [2], the AC50 was 32.6 µM [falling, partial curve, poor fit]. For the same molecule, the AC50 under setting [1] was 32.6 µM [falling, partial curve].

Regarding `CCN(CC)c1ccc([N+](=O)[O-])c2cccnc12`, the cell number change is 12%. Further, the AC50 under setting [2] is 1.16 µM [falling, full curve]. Besides, under setting [1], the half-maximal activity concentration (AC50) was 1.3 µM [falling, full curve].

As to `CCCCOc1ccc(CCN)cc1Cl`, the cell number change turned out to be 18%. Further, the AC50 under setting [2] is 1.3 µM [falling, full curve]. Further, the AC50 under setting [1] is 1.16 µM [falling, single point].

For `C/C=C(\C)C(=O)OC1C(C)=C2C(C1OC(=O)CCCCC)C(C)(OC(C)=O)CC(OC(=O)CCC)C1(O)C2OC(=O)C1(C)O` (stereo not drawn), the cell number change is -75.2%. Moreover, under setting [2], the AC50 is 8.2 µM [falling, partial curve]. Under setting [1], the AC50 was 7.31 µM [falling, partial curve].

In the case of `CC(C)OCCCNC(=O)c1c(N)n(Cc2cccs2)c2nc3ccccc3nc12`, the cell number change is -74.3%. In addition, the AC50 under setting [2] was 25.9 µM [falling, single point]. Moreover, under setting [1], the AC50 was 29.1 µM [falling, single point].

Turning to `CC(=O)C1C2c3ccccc3OC1(C)N=c1s/c(=C/c3cnn(C)c3)c(=O)n12` (stereo not drawn), the cell number change is 1.7%. Further, the AC50 under setting [1] was 18.4 µM [rising, single point].

For `COc1ccc(C2=NS(=O)(=O)N(C)C(C(=O)N3CCC4(CC3)OCCO4)=C2)cc1OC`, the cell number change was -5.37%. Also, the half-maximal activity concentration (AC50) under setting [1] is 2.91 µM [falling, partial curve].
